Source: patent US11753376B2, “Benzyloxy pyridine derivatives and uses thereof” (AUTOTAC INC., priority 2021, dated 2023)
At least one structure is not confirmed: it was looked up by name or label, or the drawing left a doubt.

Test system: intracellular autophagy flux (LC3-II) in HEK293T cell line
Assay: Evaluation of intracellular autophagy activity (autophagy flux) by immunoblotting
Format: cell-based, human
Conditions: compound 5 μM alone or with HCQ 5 μM, 24 hours, compared to Control or DMSO negative control, FIG. 2
Protocol: In order to evaluate the autophagy flux activity efficacy by the compounds, the HEK293T cell line, which is a cell line derived from a human embryonic kidney-derived cell, was cultured using a DMEM medium containing 10% FBS and 1% streptomycin/penicillin in an incubator with 5% carbon dioxide. In order to measure the autophagy flux activity according to the treatment of the compounds synthesized in the above examples, each cell was dispensed in a 6-well plate. Additional incubation was carried out for 24 hours so that the cells were completely attached to the surface of the plate. Cells were collected after treatment with the compound (5 μM) alone or with the lysosomal inhibitor, hydroxychloroquine (HCQ) (5 μM) for 24 hours to determine whether the compound increases autophagy flux. […] Based on the measured total protein concentration, a sample buffer was added to each sample and reacted at 100° C. for 5 minutes. […]
FIG. 2 is a result of immunoblotting showing the efficacy of the compound (ATB1110) to activate intracellular autophagy flux. […] As HCQ was treated, the level of LC3-II, a marker of autophagy activity, was increased, and the difference between LC3-II in the untreated state and the treated state was measured. […]

## OCCNCc1cnc(OCc2ccccc2)c(OCc2ccccc2)c1 [ATB1110, 2-(((5,6-bis(benzyloxy)pyridin-3-yl)methyl)amino)ethan-1-ol]
  difference value of LC3-II between HCQ-untreated and HCQ-treated state: further increased
